# Measured values taken from the supplement of paper PMC7024190.
# Counter-ions that a name gives are not always drawn. This is one part of the list. Single values are uncertain here, since repeats match poorly.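 Human embryonic kidney cells were transiently transfected with a plasmid bearing a Renilla luciferase gene under the HSV-TK promoter. This first-round screen tests roughly ten thousand compounds for ones that increase reporter output.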
# Tested on: HEK 293FT
# Test: log relative Renilla luciferase luminescence (reporter expression vs reference, reference not stated) (log (base not stated)); higher = higher recombinant reporter expression
# Conditions: 10 µM; time after transfection 48 h
row,Structure (SMILES),log
1,CC(C)[C@@]1(NC(=O)[C@@H]2C[C@@H]3c4cccc5[nH]cc(c45)C[C@H]3N(C)C2)O[C@@]2(O)[C@@H]3CCCN3C(=O)[C@H](Cc3ccccc3)N2C1=O [Dihydroergocristine mesylate],0.195
2,CN1CC[C@@H]2CN3CCc4cccc(c43)[C@@H]2C1 [SDZ SER 082 fumarate],-0.056
3,"Clc1ccc(N2CCN(Cc3c[nH]c4ncccc34)CC2)cc1 [L-745,870 trihydrochloride]",-0.0109
4,c1ccc2c(c1)[I+]c1ccccc1-2 [Diphenyleneiodonium chloride],-1.49
5,CCNC(=O)[C@H]1O[C@@H](n2cnc3c(N)ncnc32)[C@H](O)[C@@H]1O,0.0481
6,CO[C@]12C[C@@H](COC(=O)c3cncc(Br)c3)CN(C)[C@@H]1Cc1cn(C)c3cccc2c13 [Nicergoline],0.037
7,CC[N+](CC)(CCCNC1=CC(=O)C(NCCC[N+](CC)(CC)Cc2ccccc2)=CC1=O)Cc1ccccc1 [Benzoquinonium dibromide],0.179
8,CN(C)c1ccc(/C=C2\CCCN=C2c2cccnc2)cc1 [DMAB-anabaseine dihydrochloride],0.0553
9,c1ccc(CCCN2CCN(CCOC(c3ccccc3)c3ccccc3)CC2)cc1,-0.0452
10,O=C1CCCN1CC#CCN1CCCC1 [Oxotremorine sesquifumarate],0.16
11,C=C(C)CN1CC[C@@]23c4c5ccc(O)c4O[C@H]2c2[nH]c4ccccc4c2C[C@]3(O)C1C5 [SDM25N hydrochloride],0.104
12,N[C@@H](Cn1oc(=O)[nH]c1=O)C(=O)O [L-Quisqualic acid],-0.0164

# Exported tab-delimited: entries from further up.
row	Structure (SMILES)	log
1	CC(C)[C@@]1(NC(=O)[C@@H]2C[C@@H]3c4cccc5[nH]cc(c45)C[C@H]3N(C)C2)O[C@@]2(O)[C@@H]3CCCN3C(=O)[C@H](Cc3ccccc3)N2C1=O [Dihydroergocristine mesylate]	0.195
2	CN1CC[C@@H]2CN3CCc4cccc(c43)[C@@H]2C1 [SDZ SER 082 fumarate]	-0.056
